# Data as given in PubChem BioAssay AID504804 (Drosophila RNAi Screening Center, 2011).
# Purpose: 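Fly genes whose loss lessens doxorubicin-driven cell death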 (primary screen)
# System: Drosophila Kc cells
# Reagents: long dsRNA against Drosophila genes, 0.5 µg dsRNA per well
# Time to read-out: 96 h (48 h knock-down, then 48 h drug)
# Treatment: doxorubicin 5 µg/ml for 48 h, added 48 h after dsRNA
# Detection: 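Luminescent ATP counts per replicate, not normalised, reflecting viable cells after 48 h dsRNA knock-down followed by 48 h of 5 µg/ml doxorubicin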
# Direction: raw ATP luminescence: higher = more viable cells, protection from doxorubicin
# Call rule: 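Active when both duplicate wells lie at least 2 SD above the plate mean and protection is confirmed by rescreening and independent dsRNAs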
# The deposit covers about 19,000 reagents; below is an unselected part of those that have a named target and a result. In the full data, 47 (0.25%) got an active call. 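Signals are raw, not normalised; exact z-scores behind calls not deposited; actives needed confirmation, so some wells reaching 2 SD are inactive.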 Unmarked entries are inactive. Names joined by + are all predicted targets of the reagent. Reagent sequences are not shown.
The first 7 records, to show the layout:
SD above plate mean,"raw ATP luminescence, replicate 1","raw ATP luminescence, replicate 2",gene knocked down,amplicon
,85990,65673,Lsp1gamma,DRSC08672
,1.68e5,1.93e5,BomT3,DRSC13537
,56810,77810,BomT3,DRSC15871
,56197,57940,CG14694,DRSC14917
,72677,62653,CG13250,DRSC11698
,61800,82573,CG18449,DRSC06754
,1.11e5,1.05e5,ema,DRSC14536

Results, from the first entry:
SD above plate mean,"raw ATP luminescence, replicate 1","raw ATP luminescence, replicate 2",gene knocked down,amplicon
,85990,65673,Lsp1gamma,DRSC08672
,1.68e5,1.93e5,BomT3,DRSC13537
,56810,77810,BomT3,DRSC15871
,56197,57940,CG14694,DRSC14917
,72677,62653,CG13250,DRSC11698
,61800,82573,CG18449,DRSC06754
,1.11e5,1.05e5,ema,DRSC14536
,1.02e5,1.15e5,gsb-n,DRSC04021
,46483,54880,gsb-n,DRSC04693
,2.46e5,2.31e5,CG31268,DRSC13203
,56807,48543,Poxm,DRSC16793
,66947,56523,CG8008,DRSC07053
,91103,52263,Alg7,DRSC02833
,60857,62700,Alg7,DRSC02834
,91930,70570,wda,DRSC15579
,3.55e5,3.41e5,fw,DRSC20334
,67110,55310,CG15561,DRSC15100
,56710,40790,CG32795,DRSC18609
,59390,51410,CG32795,DRSC18610
,68510,59270,CG14377,DRSC14837
,35853,34647,Mad,DRSC00759
,1.83e5,1.79e5,CG9302,DRSC03191
,54180,51750,CG4743,DRSC15636
,43147,37323,Rpn5,DRSC12367
,67000,60640,Gr89a,DRSC15023
,59700,55480,CAH5,DRSC15372
,56617,74110,MESK2 + CG10494,DRSC04259
,52383,31573,Hpr1,DRSC12296
,81643,1.08e5,CG32379,DRSC10318
,1.88e5,1.44e5,CG9747,DRSC16554
,2.97e5,2.86e5,fh,DRSC18430
,62823,64683,ZnT33D,DRSC02591
at least 3 SD above plate mean (active),1.09e5,55227,CG14740,DRSC14960
,26443,26947,st,DRSC11399
,36340,41257,bdwf,DRSC15532
,67587,46297,Mst84Dc,DRSC12599
,25177,23707,eIF2A,DRSC11825
,55117,51920,cu,DRSC15643
,54240,60433,cu,DRSC15648
,62273,65990,CG8079,DRSC07070
,90680,94023,CG30016,DRSC05242
,60547,19040,CG42542,DRSC15549
,62267,57980,CG17325 + CG42305,DRSC02602
,1.76e5,1.61e5,CG32727,DRSC17519
,3.48e5,3.78e5,CG6867,DRSC20013
,80270,61850,CG17562,DRSC15243
,65220,57743,l(2)k09913,DRSC04699
,1.13e5,60873,CG4230,DRSC02740
,60207,72283,Obp83ef,DRSC12268
,56090,32233,CG15219,DRSC03715
,40670,61493,Cdk9,DRSC04601
,33050,39390,csw,DRSC18756
,28233,35927,snsl,DRSC00543
,48927,51397,Mlp60A,DRSC04623
,58263,48280,CG13494,DRSC04139
,2.10e5,2.16e5,MagR,DRSC20092
,55330,46750,Prtl99C,DRSC15049
,29453,34740,CG13775,DRSC02279
,1.19e5,97417,tun,DRSC05592
,59017,59653,tun,DRSC07127
,53587,59977,GstD3,DRSC15571
,1.15e5,1.59e5,Or65a,DRSC08808
,78750,64333,St3,DRSC04505
,2.77e5,2.61e5,CG15042,DRSC19618
,93413,85307,CG30340,DRSC05167
,62957,66493,Rcd7,DRSC10100
,64637,64667,Dtwd2 + Obp84a,DRSC12603
,36923,66040,CG30349,DRSC06421
,43190,81440,CG30349,DRSC06839
,44097,40557,CG31955,DRSC00285
,48810,26540,NK7.1,DRSC16755
,73960,77803,CG15143,DRSC02444
,52140,63803,Obp85a,DRSC14362
,61107,54213,tap,DRSC11402
,75997,44707,pb,DRSC12409
,48377,41303,pb,DRSC12629
,22853,29950,CG15412,DRSC00427
,94080,78350,h-cup + Rbp,DRSC14990
,50110,67080,Mpv17,DRSC17198
,79733,77673,CG15024,DRSC08478
,63147,59607,Nmda1,DRSC07479
,70813,82970,CG7120,DRSC10773
,63950,67407,mthl8,DRSC08211
,31800,33290,tin,DRSC17083
